This is an account of results in publication PMC5709663.

Amino acid sequences for entries named in this document (tags omitted).
UniProt P03372: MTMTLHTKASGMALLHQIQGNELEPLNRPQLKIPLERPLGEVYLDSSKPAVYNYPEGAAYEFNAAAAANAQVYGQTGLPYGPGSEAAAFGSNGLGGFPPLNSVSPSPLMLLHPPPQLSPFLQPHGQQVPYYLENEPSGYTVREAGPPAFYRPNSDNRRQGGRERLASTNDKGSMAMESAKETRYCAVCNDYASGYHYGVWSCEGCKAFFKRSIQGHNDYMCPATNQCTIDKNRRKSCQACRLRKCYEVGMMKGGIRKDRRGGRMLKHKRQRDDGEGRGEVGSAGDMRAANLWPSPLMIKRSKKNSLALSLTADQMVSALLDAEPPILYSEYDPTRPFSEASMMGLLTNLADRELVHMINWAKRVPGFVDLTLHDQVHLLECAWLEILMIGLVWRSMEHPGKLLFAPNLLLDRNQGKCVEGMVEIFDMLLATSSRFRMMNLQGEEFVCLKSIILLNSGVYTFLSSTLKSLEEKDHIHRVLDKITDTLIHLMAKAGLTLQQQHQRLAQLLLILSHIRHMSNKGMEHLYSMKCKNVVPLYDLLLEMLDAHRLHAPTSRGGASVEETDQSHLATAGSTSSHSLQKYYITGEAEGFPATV

For assay [1], the target named is T1, TFIIB-related factor 1 (Brf1) (human (endogenous in MCF-7)) (UniProt Q92994).
T1 sequence: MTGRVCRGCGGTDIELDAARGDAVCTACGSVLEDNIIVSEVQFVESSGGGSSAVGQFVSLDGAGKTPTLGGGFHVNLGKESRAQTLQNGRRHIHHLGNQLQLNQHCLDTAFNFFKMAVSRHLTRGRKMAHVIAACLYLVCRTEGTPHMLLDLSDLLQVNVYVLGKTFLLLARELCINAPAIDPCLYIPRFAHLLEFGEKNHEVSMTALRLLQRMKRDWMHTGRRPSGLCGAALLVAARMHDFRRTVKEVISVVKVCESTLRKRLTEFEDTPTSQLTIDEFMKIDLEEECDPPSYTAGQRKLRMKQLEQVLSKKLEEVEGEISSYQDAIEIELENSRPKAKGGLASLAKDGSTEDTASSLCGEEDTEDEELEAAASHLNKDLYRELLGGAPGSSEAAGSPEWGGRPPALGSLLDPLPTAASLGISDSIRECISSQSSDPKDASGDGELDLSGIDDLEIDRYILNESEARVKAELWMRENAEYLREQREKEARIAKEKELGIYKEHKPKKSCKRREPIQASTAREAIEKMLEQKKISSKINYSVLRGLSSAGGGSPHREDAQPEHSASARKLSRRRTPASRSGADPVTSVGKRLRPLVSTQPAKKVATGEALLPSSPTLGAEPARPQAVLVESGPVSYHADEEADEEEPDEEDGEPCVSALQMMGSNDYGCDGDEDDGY
The assay can be described thus: co-IP; endogenous proteins; lysates of MCF-7 cells treated with ethanol; immunoprecipitation with Brf1 or ERα antibody, detection by Western blot. (In general: A western blot detects proteins with antibodies after separation by electrophoresis.)

For assay [2], the target named is estrogen receptor alpha (ERα) (human (endogenous in MCF-7)) (UniProt P03372). Described as above.

Results are given in words; binding and its absence hold for the method and conditions named. In cells and extracts the contact can be indirect. Some entries that bind do so weakly or less than the wild type.

As to “estrogen receptor alpha (ERα) (from UniProt P03372 1-595)”, the binding result in assay [1] was “binds”.

B1: TFIIB-related factor 1 (Brf1) (protein, UniProt Q92994 1-677)
chain: MTGRVCRGCGGTDIELDAARGDAVCTACGSVLEDNIIVSEVQFVESSGGGSSAVGQFVSLDGAGKTPTLGGGFHVNLGKESRAQTLQNGRRHIHHLGNQLQLNQHCLDTAFNFFKMAVSRHLTRGRKMAHVIAACLYLVCRTEGTPHMLLDLSDLLQVNVYVLGKTFLLLARELCINAPAIDPCLYIPRFAHLLEFGEKNHEVSMTALRLLQRMKRDWMHTGRRPSGLCGAALLVAARMHDFRRTVKEVISVVKVCESTLRKRLTEFEDTPTSQLTIDEFMKIDLEEECDPPSYTAGQRKLRMKQLEQVLSKKLEEVEGEISSYQDAIEIELENSRPKAKGGLASLAKDGSTEDTASSLCGEEDTEDEELEAAASHLNKDLYRELLGGAPGSSEAAGSPEWGGRPPALGSLLDPLPTAASLGISDSIRECISSQSSDPKDASGDGELDLSGIDDLEIDRYILNESEARVKAELWMRENAEYLREQREKEARIAKEKELGIYKEHKPKKSCKRREPIQASTAREAIEKMLEQKKISSKINYSVLRGLSSAGGGSPHREDAQPEHSASARKLSRRRTPASRSGADPVTSVGKRLRPLVSTQPAKKVATGEALLPSSPTLGAEPARPQAVLVESGPVSYHADEEADEEEPDEEDGEPCVSALQMMGSNDYGCDGDEDDGY
For the molecule B1, the binding entry in assay [2] is listed as “binds”.
